Laboratory results as given in article PMC3820564.
Results are given in words; binding and its absence hold for the method and conditions named. For some of these results: Binding seen in cells or lysates may run through a third protein. Some results given as binding are weak or reduced against the parent protein; the word gives no strength. For some of these results: Tags and fused reporters may be left off the sequences shown.

By UniProt entry, the sequences of proteins in these tests, tags left out.
UniProt P49721: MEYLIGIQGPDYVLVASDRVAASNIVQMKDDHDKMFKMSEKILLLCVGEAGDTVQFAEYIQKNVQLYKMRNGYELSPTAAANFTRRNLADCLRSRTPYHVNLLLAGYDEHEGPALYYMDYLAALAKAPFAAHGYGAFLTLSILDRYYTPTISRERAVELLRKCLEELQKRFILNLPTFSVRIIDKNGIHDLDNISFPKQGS
UniProt P25788: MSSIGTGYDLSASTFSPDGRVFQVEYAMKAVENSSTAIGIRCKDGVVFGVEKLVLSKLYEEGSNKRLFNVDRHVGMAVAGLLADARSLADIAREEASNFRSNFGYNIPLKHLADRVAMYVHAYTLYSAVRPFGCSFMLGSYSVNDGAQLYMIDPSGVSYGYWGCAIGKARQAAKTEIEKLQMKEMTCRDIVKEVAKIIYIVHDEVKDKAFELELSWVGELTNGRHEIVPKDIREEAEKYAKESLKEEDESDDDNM
UniProt P09022: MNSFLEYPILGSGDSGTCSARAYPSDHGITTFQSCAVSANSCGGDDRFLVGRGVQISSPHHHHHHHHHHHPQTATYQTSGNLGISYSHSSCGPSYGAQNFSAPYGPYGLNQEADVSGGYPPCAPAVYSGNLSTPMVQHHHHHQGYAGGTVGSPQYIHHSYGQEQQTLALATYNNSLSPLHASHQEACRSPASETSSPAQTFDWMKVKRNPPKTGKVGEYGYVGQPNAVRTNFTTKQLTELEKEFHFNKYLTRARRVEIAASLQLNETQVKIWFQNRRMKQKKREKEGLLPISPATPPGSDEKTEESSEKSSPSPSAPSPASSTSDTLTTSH
UniProt P31245: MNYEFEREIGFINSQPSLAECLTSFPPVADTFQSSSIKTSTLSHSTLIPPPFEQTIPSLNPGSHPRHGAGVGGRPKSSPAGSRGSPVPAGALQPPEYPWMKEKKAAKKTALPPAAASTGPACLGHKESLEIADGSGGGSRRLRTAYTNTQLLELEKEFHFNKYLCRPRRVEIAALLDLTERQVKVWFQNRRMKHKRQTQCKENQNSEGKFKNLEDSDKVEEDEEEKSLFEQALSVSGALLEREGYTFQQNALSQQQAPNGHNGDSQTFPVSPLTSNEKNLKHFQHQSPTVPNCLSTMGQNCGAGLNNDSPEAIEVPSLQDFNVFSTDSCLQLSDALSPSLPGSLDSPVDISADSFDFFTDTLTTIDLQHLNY

Key:
[1] = biological target: proteasome subunit beta type-2 (PSMB2), GAL4-DB fusion (human) (UniProt P49721); experiment: two-hybrid; GAL4-based yeast two-hybrid; screen of the human ORFeome v3.1 with Hoxa2 as bait and as prey, then retest with AD-Hoxa2 as prey and DB fusions as bait; strains Y8800 and Y8930 mated at 30°C; GAL1-HIS3 reporter on medium lacking histidine, leucine and tryptophan; cycloheximide plates as control for autoactivation
[2] = biological target: proteasome subunit alpha type-3 (PSMA3), GAL4-DB fusion (human) (UniProt P25788); experiment: as above
[3] = biological target: N-terminal glutathione S-transferase (GST)-PSMB2 fusion protein (human) (UniProt P49721); experiment: pull-down; co-precipitation on glutathione-agarose beads from lysates of HEK293T cells co-transfected with the GST fusion and the FLAG fusion; IPLS lysis buffer (0.5% NP-40, 20 mM Tris-HCl pH 7.5, 0.5 mM EDTA, 120 mM NaCl, 10% glycerol), beads overnight at 4 °C; blot with anti-FLAG M2; for the pairs with GST-RCHY1 the cells were treated with the proteasome inhibitor MG132 for 15 hours before lysis
[4] = biological target: T1, N-terminal glutathione S-transferase (GST)-RCHY1 (full length) fusion protein (human) (UniProt Q96PM5); experiment: as above
T1 sequence: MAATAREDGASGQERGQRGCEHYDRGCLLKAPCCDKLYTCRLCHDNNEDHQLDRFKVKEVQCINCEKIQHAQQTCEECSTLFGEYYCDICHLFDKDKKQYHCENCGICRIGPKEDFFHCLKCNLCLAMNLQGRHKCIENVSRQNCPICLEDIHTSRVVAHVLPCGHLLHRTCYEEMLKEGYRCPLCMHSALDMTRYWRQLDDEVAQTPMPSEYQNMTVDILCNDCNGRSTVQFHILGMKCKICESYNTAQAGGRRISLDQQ

[5] = biological target: N-terminal glutathione S-transferase (GST)-PSMA3 fusion protein (human) (UniProt P25788); experiment: as above
[6] = biological target: N-terminal triple FLAG fusion Hoxa1 (UniProt P09022); experiment: as above

binding [1] | binding [2] | binding [3] | binding [4] | binding [5] | binding [6] | Substance
binds | binds |  |  |  |  | Hoxa2 (GAL4 fusion for yeast two-hybrid) (from UniProt P31245 1-372)
 |  | binds | binds | binds |  | N-terminally triple-FLAG-tagged Hoxa2 (from UniProt P31245 1-372)
 |  |  | binds |  | binds | N-terminal triple FLAG fusion Hoxa1 (from UniProt P09022 1-331)
